From patent US20040009534A1, “Protein analysis” (DYAX CORPORATION, priority 2002, published 2004)
At least one compound was matched to its structure with a doubt left.

Protein sequences, listed by entry. Tags and fused reporters are not part of them. Residues count along the entry.
UniProt P02769, 25-607: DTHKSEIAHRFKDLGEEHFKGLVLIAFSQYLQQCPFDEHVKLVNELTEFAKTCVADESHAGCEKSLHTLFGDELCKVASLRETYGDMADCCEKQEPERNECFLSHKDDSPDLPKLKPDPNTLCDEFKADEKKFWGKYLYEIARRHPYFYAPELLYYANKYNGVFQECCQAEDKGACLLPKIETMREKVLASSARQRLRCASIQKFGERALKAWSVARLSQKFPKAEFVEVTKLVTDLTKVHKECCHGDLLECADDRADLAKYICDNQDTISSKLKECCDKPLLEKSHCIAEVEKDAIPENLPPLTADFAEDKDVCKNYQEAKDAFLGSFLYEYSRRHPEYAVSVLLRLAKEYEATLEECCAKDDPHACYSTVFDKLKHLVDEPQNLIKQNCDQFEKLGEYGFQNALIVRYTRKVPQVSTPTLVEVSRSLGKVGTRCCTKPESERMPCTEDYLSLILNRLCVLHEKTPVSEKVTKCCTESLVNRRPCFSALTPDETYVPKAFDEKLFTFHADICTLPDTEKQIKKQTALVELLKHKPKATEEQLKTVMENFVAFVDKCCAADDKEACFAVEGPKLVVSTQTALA
UniProt P49065, 25-608: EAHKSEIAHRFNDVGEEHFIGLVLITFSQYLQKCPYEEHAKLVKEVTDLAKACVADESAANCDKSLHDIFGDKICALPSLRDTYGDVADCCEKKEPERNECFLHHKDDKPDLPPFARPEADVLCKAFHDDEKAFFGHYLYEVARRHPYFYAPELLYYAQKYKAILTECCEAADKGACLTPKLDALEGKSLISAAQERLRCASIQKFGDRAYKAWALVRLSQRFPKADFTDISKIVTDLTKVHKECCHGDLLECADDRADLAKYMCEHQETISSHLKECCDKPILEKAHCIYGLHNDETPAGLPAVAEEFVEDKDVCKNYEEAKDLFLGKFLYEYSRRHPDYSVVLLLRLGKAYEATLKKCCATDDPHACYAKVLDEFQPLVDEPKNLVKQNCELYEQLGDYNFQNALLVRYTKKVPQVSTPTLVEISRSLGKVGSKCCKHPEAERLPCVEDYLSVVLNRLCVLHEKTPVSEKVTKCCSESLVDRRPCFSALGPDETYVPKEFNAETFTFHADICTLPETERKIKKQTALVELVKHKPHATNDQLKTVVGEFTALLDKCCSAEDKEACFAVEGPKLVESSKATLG
UniProt P08835, 25-607: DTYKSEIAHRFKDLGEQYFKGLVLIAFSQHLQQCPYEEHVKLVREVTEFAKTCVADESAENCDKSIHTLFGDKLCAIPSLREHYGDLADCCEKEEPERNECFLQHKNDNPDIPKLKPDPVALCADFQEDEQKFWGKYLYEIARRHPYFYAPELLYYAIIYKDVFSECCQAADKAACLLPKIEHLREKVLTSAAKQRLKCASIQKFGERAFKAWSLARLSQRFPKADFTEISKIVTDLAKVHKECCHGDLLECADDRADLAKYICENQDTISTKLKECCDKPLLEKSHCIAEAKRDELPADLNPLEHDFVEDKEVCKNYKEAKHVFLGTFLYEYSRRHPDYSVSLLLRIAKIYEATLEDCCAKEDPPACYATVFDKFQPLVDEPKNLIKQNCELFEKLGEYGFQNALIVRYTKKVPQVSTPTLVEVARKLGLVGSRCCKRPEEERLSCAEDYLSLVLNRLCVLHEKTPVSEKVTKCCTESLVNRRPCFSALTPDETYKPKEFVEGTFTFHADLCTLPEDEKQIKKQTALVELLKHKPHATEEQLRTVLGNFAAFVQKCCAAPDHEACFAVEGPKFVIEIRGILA

Assays:
Assay type in all cases: binding
chicken ovalbumin = target: T1, chicken ovalbumin (Gallus gallus, UniProt P01012); assay: Dissociation constants (KD) against a panel of albumins, negative control; conditions: Chicken (egg)
T1 sequence (P01012 1-386): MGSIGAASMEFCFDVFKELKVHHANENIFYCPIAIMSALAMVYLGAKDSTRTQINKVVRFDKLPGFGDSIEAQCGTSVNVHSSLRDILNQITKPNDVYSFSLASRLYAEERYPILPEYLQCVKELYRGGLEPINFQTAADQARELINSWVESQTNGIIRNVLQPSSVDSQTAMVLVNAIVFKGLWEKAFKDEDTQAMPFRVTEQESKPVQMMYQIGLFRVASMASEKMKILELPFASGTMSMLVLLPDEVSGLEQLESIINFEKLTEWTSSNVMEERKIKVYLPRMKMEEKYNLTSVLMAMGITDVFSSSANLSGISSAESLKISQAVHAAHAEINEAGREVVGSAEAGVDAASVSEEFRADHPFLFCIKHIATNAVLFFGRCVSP
Description: The binding properties of a ligand that binds a serum protein can be readily assessed using various assay formats. For example, the binding property of a ligand can be measured in solution by fluorescence anisotropy, which provides a convenient and accurate method of determining a dissociation constant (KD) of a binding moiety for a serum albumin from one or more different species. In one such procedure, a binding moiety described herein is labeled with fluorescein. The fluorescein-labeled binding moiety may then be mixed in wells of a multi-well assay plate with various concentrations of a particular species of serum albumin. Fluorescence anisotropy measurements are then carried out using a fluorescence polarization plate reader. The binding interaction between a serum protein and a non-covalently associated compound can be similarly characterized. Other solution measures for studying binding properties include fluorescence resonance energy transfer (FRET) and NMR.
Chicken ovalbumin is not homologous to HSA as determined by sequence alignment analysis.

Bovine albumin = Bovine albumin (Bos taurus, UniProt P02769); assay: Dissociation constants (KD) against a panel of albumins; conditions: PBS, pH 7.4, […] NaCl
Rabbit albumin = Rabbit albumin (Oryctolagus cuniculus, UniProt P49065); assay: as above; conditions: PBS, pH 7.4, […] NaCl
Pig albumin = Pig albumin (Sus scrofa, UniProt P08835); assay: as above; conditions: PBS, pH 7.4, […] NaCl

Measured: Kd

CC[C@H](C)[C@@H]1NC(=O)[C@H](Cc2c[nH]c3ccccc23)NC(=O)[C@H](CO)NC(=O)[C@H](Cc2ccccc2)NC(=O)[C@H](CCCCN)NC(=O)[C@@H](NC(=O)[C@H](CCSC)NC(=O)[C@H](CC(N)=O)NC(=O)[C@H](CCCNC(=N)N)NC(=O)[C@H](CC(=O)O)NC(=O)CNC(=O)[C@@H](NC(=O)CNC(=O)[C@H](CCC(=O)O)NC(=O)[C@H](C)NC(C)=O)[C@@H](C)O)CSSC[C@@H](C(=O)N[C@@H](C)C(=O)N[C@@H](CCCNC(=N)N)C(=O)N[C@@H](C)C(=O)N[C@@H](CC(=O)O)C(=O)N2CCC[C@H]2C(=O)N[C@@H](CCC(=O)O)C(=O)NCCCCCC(=O)N[C@@H](CCCCN)C(N)=O)NC(=O)[C@H](Cc2ccccc2)NC(=O)[C@H](C)NC(=O)[C@@H]2CCCN2C(=O)[C@H](CO)NC(=O)[C@H](CCCNC(=N)N)NC1=O [DX-321]
> 200 µM: chicken ovalbumin; PBS, pH 7.4, […] NaCl | chicken ovalbumin; phosphate, pH 6.2, O M NaCl | Bovine albumin | Rabbit albumin | Pig albumin
